Measurements published in paper PMC3112164.
These are yes or no findings as the source states them, for the method shown. Binding seen in cells or lysates may run through a third protein. Some binding calls cover weakened binding; strength is not graded here.

Chains of the proteins cited; added tags and fusions are not shown. Residues count along the entry.
UniProt P08581, residues 25-1390: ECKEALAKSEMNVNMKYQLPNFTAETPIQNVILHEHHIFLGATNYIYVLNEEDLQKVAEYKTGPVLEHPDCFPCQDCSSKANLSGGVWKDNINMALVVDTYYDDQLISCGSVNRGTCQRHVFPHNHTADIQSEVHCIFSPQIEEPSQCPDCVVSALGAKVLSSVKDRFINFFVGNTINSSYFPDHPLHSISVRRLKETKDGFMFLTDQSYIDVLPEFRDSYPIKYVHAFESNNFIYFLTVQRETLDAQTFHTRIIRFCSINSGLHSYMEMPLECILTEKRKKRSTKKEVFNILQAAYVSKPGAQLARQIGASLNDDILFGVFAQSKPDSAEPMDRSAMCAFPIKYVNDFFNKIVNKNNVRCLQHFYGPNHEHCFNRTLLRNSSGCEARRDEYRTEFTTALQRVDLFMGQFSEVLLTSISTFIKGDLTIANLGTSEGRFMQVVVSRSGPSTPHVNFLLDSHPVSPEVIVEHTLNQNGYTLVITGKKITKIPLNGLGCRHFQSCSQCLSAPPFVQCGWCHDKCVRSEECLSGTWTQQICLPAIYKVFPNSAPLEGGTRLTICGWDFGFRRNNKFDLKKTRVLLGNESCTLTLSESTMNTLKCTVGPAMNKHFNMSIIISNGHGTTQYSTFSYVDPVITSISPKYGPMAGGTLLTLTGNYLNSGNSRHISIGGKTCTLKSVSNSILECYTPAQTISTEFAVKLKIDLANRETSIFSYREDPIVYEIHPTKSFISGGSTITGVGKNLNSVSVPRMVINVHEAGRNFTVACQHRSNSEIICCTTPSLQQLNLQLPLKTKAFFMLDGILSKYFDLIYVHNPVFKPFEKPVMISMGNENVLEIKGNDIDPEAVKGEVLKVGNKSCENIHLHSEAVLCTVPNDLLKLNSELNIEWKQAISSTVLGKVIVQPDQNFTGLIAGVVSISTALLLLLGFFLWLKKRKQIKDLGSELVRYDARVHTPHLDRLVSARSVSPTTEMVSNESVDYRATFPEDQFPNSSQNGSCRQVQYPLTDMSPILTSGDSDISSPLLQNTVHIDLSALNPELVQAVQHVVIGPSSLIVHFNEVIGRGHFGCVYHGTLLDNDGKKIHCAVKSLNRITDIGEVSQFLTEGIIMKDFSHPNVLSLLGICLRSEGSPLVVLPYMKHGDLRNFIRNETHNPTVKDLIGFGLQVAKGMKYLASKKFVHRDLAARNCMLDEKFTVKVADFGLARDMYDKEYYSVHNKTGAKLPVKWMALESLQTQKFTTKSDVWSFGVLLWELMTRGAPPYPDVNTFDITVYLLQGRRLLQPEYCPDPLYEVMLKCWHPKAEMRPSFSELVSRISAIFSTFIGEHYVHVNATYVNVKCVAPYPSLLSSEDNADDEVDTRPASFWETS
UniProt P40763: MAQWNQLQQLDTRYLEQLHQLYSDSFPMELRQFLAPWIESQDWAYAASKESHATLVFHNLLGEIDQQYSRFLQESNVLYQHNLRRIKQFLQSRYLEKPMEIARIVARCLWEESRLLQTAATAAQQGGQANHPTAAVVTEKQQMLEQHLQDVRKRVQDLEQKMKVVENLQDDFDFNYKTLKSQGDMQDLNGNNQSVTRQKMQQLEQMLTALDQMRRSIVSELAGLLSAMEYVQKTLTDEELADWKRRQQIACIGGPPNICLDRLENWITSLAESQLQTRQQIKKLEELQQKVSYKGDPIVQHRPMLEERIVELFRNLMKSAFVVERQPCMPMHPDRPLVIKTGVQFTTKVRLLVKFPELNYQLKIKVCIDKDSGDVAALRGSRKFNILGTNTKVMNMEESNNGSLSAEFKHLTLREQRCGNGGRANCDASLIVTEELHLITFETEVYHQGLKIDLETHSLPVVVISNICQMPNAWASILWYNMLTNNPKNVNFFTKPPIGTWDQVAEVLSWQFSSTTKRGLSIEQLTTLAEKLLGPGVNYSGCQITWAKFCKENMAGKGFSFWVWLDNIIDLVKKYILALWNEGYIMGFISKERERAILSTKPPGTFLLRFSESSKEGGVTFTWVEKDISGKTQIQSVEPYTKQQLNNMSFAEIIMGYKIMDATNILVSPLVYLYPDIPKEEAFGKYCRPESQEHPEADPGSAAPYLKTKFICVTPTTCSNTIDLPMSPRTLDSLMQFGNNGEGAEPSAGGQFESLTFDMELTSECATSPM

Experiments:
[1] = target: c-met receptor tyrosine kinase (human (endogenous in SRB12-p9)) (UniProt P08581); test: co-IP; reciprocal immunoprecipitation with total c-met and total Stat3 antibodies from lysates (500 μg, 1% NP-40 in PBS) of WT and DN2 SRB12-p9 cells, serum-starved overnight, untreated or treated with 100 ng/ml HGF for 30 minutes; 4°C overnight; Western blot with the reciprocal antibody; rabbit IgG control
[2] = target: Stat3 (human (endogenous in SRB12-p9)) (UniProt P40763); test: as above

Row | binding [1] | binding [2] | Substance
1 | binds | – | Stat3 (from UniProt P40763 1-770)
2 | – | binds | c-met receptor tyrosine kinase (from UniProt P08581 25-1390)
